Results deposited as PubChem BioAssay AID504808 (Drosophila RNAi Screening Center, 2011).
The screen tested about 21,000 reagents; shown is a random part of those that have a named target and a result. In the full data, 18 (0.084%) are marked active. 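Raw counts without plate normalisation, one of two replicates; the ratio scores behind the calls were not deposited.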 A number with no mark means an inactive call. The numbers tell different reagents against one gene apart. The record does not give: the amount of reagent, the time to read-out.

- Assay: 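Fly genes required to hold E2F transcription in check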 (primary screen)
- Cell system: Drosophila S2 cells
- Knock-down reagent: long dsRNA against Drosophila genes
- Detection: 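Dual luciferase plate measurements; E2F-specific signal taken as firefly over Renilla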
- Reading the numbers: E2F firefly: higher = more E2F reporter activity; Renilla normaliser: higher = more normaliser reporter signal
- Call rule: 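a knock-down counted as active when the firefly/Renilla E2F signal rose above 50%, a threshold chosen arbitrarily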

Against CG31345 #1 the deposit lists E2F firefly, rep 1 = 1.19e5; Renilla normaliser, rep 1 = 5484.
After knock-down of CG31345 #2, the screen gave E2F firefly, rep 1 = 1.28e5; Renilla normaliser, rep 1 = 6013.
Depletion of esg (escargot) gave: E2F firefly, rep 1 = 1.01e5; Renilla normaliser, rep 1 = 3670.
Depletion of CG15345 (retired record) resulted in: E2F firefly, rep 1 = 1.07e5; Renilla normaliser, rep 1 = 5325.
Silencing of Gcna (Germ cell nuclear acidic peptidase) gave: E2F firefly, rep 1 = 2046; Renilla normaliser, rep 1 = 940.
With knock-down of fand (fandango) the results were E2F firefly, rep 1 = 2162; Renilla normaliser, rep 1 = 232.
CG17105 scored E2F firefly, rep 1 = 1.53e5; Renilla normaliser, rep 1 = 5397.
CG12123 gave E2F firefly, rep 1 = 8143; Renilla normaliser, rep 1 = 664.
For mim (missing-in-metastasis) the deposit lists E2F firefly, rep 1 = 1.05e5; Renilla normaliser, rep 1 = 3588.
Knock-down of Oatp58Dc (Organic anion transporting polypeptide 58Dc) resulted in: E2F firefly, rep 1 = 94066; Renilla normaliser, rep 1 = 3624.
Silencing of Phb1 (Prohibitin 1) came out at: E2F firefly, rep 1 = 80910; Renilla normaliser, rep 1 = 3649.
Against CG15262, the entry reads E2F firefly, rep 1 = 99181; Renilla normaliser, rep 1 = 4660.

Only “Renilla normaliser, rep 1” (2 entries from above):
CG17105 = 5397
CG12123 = 664
